These are yes or no findings as the source states them, for the method shown. Binding seen in cells or lysates may run through a third protein. Some entries that bind do so weakly or less than the wild type. Tags and fused reporters may be left off the sequences shown.
Columns and labels:
Assay in all cases: pull-down; SFB-tagged DUB (or OTUD6A full length or truncated) and MYC-tagged Aurora-A (full length or truncated) co-transfected into HEK293T; lysis in NETN buffer; DUB pulled down with S-protein beads at 4 °C overnight; Aurora-A blotted with MYC antibody
SFB-tagged USP6 (human) = SFB-tagged USP6 (human) (UniProt P35125)
SFB-tagged USP42 (human) = molecular target: T1, SFB-tagged USP42 (human) (UniProt Q9H9J4)
T1 sequence: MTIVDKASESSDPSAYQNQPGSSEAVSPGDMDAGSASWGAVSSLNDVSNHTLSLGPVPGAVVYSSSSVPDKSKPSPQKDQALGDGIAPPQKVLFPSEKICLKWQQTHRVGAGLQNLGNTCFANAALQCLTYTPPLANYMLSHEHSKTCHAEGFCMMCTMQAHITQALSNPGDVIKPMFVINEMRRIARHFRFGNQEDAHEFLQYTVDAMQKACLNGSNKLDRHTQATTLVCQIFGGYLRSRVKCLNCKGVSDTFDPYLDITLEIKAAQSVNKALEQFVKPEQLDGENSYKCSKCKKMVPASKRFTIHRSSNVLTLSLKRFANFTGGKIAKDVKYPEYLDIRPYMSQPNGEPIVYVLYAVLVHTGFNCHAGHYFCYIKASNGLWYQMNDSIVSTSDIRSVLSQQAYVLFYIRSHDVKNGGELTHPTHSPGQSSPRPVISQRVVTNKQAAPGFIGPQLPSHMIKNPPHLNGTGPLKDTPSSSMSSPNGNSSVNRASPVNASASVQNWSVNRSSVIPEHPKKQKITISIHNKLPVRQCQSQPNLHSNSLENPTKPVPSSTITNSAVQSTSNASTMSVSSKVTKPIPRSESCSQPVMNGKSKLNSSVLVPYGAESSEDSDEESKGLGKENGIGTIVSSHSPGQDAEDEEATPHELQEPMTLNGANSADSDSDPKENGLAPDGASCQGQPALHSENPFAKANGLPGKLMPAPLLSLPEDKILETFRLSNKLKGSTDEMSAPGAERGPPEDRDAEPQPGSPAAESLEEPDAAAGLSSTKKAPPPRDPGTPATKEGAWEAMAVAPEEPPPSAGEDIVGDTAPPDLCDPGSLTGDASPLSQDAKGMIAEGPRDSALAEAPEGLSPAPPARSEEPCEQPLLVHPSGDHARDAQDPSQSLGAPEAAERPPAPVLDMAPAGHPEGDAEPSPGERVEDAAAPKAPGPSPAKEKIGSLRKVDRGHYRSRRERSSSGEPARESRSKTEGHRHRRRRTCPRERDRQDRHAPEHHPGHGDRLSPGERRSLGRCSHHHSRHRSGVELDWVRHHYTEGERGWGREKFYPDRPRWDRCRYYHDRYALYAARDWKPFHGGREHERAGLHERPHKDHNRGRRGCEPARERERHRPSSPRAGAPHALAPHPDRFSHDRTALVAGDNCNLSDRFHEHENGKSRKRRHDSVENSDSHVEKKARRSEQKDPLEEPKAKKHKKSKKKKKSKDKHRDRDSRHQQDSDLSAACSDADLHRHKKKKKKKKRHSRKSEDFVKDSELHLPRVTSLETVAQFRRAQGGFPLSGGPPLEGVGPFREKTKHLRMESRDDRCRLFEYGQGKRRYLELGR

Chains of the proteins cited; added tags and fusions are not shown.
UniProt P35125: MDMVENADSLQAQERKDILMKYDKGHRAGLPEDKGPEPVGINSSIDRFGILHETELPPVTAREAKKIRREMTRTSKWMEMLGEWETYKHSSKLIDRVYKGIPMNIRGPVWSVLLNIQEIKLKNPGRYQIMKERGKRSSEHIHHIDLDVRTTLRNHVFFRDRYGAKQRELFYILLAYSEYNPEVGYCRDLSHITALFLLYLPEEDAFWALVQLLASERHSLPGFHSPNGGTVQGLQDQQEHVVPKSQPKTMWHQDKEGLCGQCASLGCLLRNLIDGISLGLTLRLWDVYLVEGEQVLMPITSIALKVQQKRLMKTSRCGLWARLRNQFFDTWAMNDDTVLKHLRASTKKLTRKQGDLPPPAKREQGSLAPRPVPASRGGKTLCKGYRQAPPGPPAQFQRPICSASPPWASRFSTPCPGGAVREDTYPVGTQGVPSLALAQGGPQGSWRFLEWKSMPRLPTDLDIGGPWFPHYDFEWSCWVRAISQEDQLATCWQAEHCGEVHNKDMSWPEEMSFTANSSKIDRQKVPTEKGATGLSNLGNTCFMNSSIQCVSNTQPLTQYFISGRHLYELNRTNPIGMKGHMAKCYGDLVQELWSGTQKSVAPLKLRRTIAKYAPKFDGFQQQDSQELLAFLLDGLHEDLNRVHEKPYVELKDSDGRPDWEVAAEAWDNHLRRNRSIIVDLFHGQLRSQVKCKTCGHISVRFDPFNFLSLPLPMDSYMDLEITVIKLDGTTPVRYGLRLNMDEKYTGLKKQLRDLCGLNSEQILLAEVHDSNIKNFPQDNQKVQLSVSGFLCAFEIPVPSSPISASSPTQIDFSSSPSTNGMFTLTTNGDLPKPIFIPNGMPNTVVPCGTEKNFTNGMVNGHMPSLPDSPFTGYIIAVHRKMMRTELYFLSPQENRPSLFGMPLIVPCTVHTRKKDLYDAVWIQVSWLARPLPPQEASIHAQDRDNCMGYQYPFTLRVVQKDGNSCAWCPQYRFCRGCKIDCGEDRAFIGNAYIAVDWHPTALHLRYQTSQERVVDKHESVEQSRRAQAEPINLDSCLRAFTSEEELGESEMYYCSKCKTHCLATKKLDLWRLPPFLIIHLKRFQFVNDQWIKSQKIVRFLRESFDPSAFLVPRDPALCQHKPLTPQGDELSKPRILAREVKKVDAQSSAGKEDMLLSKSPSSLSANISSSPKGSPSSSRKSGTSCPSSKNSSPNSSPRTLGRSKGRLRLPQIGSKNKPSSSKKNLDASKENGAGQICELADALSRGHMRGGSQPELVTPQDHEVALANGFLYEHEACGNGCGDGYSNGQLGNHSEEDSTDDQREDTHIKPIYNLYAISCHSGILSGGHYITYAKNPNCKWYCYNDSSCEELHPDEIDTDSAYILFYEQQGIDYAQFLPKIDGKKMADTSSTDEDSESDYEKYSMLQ
UniProt P51784: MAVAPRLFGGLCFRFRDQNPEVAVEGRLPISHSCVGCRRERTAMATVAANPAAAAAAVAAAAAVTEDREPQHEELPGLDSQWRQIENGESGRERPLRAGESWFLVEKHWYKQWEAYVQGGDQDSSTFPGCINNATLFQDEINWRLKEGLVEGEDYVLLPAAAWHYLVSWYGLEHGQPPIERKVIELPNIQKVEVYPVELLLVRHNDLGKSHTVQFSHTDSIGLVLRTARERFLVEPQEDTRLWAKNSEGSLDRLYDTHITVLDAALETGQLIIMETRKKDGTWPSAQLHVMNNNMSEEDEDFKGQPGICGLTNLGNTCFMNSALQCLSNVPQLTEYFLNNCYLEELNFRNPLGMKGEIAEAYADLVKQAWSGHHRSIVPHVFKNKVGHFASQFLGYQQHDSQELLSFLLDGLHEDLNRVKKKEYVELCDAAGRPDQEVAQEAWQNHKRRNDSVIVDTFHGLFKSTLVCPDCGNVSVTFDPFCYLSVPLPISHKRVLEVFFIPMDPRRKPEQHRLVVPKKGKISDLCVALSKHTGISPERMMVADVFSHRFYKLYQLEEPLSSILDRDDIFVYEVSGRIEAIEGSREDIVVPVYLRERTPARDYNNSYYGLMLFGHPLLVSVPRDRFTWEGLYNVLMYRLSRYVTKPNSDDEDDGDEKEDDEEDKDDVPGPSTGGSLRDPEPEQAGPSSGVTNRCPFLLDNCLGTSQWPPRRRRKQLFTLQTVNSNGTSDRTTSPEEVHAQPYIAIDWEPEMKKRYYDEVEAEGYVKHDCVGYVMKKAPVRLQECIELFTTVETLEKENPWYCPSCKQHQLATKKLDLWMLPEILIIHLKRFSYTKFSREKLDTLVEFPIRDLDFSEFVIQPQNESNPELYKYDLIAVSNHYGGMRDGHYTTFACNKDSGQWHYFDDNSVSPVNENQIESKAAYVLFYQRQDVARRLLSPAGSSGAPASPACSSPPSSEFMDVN

SFB-tagged USP11 (human) = SFB-tagged USP11 (human) (UniProt P51784)

Measured: binding

B1: MYC-tagged Aurora kinase A, full-length wild type (aa 1-403) (protein, UniProt O14965 1-403)
chain: MDRSKENCISGPVKATAPVGGPKRVLVTQQFPCQNPLPVNSGQAQRVLCPSNSSQRIPLQAQKLVSSHKPVQNQKQKQLQATSVPHPVSRPLNNTQKSKQPLPSAPENNPEEELASKQKNEESKKRQWALEDFEIGRPLGKGKFGNVYLAREKQSKFILALKVLFKAQLEKAGVEHQLRREVEIQSHLRHPNILRLYGYFHDATRVYLILEYAPLGTVYRELQKLSKFDEQRTATYITELANALSYCHSKRVIHRDIKPENLLLGSAGELKIADFGWSVHAPSSRRTTLCGTLDYLPPEMIEGRMHDEKVDLWSLGVLCYEFLVGKPPFEANTYQETYKRISRVEFTFPDFVTEGARDLISRLLKHNPSQRPMLREVLEHPWITANSSKPSNCQNKESASKQS
binds: SFB-tagged USP6 (human) | SFB-tagged USP42 (human) | SFB-tagged USP11 (human)

Reference: PMC7919836
